Results: publication PMC6101293
Results are given in words; binding and its absence hold for the method and conditions named. In cells and extracts the contact can be indirect. Some binding calls cover weakened binding; strength is not graded here.

The chains behind the UniProt entries cited, without tags or fusion partners.
UniProt P07384: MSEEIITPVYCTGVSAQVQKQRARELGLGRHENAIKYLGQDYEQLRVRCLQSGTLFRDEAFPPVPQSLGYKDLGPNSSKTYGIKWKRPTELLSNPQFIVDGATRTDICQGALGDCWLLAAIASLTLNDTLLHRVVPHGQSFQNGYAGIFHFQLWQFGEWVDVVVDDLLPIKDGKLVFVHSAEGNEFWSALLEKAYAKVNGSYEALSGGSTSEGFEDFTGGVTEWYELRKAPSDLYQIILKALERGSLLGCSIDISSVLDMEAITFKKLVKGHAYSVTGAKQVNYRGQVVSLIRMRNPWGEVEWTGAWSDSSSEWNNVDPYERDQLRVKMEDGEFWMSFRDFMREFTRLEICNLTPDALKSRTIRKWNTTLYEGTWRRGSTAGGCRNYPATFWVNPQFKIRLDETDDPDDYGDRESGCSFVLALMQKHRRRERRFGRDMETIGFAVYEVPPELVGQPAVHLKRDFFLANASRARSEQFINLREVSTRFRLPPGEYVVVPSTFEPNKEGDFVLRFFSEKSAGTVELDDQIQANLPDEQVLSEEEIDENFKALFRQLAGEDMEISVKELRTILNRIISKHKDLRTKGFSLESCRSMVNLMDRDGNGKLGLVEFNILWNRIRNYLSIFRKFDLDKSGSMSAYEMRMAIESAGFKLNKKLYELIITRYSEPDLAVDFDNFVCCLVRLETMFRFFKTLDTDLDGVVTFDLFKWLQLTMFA
UniProt P21359: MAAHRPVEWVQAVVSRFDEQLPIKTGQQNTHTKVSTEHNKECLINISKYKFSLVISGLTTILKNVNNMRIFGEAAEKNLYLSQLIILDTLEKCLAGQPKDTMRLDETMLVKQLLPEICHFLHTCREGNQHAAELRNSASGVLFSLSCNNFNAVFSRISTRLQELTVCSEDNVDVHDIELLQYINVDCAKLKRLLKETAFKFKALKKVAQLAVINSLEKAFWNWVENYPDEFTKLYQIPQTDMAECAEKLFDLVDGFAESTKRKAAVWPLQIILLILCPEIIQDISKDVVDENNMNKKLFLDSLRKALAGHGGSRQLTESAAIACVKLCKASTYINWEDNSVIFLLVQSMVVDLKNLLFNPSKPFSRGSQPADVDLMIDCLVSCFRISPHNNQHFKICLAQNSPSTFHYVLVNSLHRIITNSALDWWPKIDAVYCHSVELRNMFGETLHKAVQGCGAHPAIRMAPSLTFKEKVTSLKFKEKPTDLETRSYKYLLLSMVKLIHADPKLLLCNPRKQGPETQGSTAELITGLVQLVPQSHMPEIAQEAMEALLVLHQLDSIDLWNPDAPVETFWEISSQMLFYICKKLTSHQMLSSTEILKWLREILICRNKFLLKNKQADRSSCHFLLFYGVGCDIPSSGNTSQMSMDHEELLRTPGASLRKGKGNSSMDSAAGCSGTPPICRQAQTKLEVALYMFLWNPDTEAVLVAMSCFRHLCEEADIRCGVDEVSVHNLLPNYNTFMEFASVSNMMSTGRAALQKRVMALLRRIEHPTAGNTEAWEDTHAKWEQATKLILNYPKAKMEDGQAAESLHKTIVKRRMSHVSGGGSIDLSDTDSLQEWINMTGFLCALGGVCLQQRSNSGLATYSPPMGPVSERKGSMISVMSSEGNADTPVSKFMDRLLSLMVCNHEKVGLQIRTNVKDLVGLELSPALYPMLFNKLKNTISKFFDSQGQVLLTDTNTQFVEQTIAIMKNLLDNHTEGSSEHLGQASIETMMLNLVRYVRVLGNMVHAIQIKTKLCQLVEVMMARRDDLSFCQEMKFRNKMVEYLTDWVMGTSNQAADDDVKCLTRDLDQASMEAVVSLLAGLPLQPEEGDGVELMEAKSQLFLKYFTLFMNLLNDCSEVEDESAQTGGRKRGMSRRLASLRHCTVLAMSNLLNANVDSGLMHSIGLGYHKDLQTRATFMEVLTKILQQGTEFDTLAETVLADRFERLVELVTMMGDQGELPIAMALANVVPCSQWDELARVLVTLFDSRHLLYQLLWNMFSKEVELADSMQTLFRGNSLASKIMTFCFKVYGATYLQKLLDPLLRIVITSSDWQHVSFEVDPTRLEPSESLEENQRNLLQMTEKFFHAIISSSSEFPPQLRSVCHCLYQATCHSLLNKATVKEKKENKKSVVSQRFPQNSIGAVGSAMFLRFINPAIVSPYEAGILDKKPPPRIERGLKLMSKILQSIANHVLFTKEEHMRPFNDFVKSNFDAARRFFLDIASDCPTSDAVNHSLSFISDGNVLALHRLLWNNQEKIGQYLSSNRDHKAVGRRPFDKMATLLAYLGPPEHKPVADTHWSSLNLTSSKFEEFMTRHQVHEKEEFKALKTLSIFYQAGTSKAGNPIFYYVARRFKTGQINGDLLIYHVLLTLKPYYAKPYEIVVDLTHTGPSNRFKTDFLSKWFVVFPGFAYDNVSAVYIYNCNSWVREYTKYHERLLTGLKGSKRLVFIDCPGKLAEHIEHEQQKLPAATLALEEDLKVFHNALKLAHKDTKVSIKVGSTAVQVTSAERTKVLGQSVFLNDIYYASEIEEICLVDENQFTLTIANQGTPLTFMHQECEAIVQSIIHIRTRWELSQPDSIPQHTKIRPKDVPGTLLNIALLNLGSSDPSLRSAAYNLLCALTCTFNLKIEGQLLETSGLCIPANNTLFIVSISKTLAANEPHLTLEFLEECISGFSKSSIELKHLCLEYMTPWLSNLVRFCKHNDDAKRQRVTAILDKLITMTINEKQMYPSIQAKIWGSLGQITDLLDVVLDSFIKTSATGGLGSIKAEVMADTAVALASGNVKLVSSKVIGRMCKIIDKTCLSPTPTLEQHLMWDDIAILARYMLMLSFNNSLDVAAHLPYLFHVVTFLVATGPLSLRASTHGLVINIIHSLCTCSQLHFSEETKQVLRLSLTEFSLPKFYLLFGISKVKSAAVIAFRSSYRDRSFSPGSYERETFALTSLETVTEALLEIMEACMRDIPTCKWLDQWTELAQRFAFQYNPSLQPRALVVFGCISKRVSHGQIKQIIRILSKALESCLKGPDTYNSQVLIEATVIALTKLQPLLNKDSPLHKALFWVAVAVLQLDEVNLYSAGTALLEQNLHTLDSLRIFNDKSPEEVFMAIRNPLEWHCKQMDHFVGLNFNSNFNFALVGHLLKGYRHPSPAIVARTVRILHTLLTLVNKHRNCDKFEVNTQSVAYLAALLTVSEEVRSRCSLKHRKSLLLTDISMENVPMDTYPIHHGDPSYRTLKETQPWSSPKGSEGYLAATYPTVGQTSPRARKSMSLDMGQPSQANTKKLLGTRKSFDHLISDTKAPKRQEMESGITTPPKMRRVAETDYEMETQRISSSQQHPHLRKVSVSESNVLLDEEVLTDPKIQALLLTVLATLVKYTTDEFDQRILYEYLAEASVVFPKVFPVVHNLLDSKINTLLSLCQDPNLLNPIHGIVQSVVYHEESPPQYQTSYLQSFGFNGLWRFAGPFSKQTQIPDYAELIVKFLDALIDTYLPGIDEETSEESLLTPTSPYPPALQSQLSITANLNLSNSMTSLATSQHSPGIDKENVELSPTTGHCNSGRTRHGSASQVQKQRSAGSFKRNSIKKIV

Target: Calpain1 (CAPN1), large catalytic (80 kDa) subunit, endogenous (human (endogenous in A375 and 74T)) (UniProt P07384)
Test: co-IP; CAPN1 immunoprecipitated with anti-CAPN1 (C0355, Sigma) from A375 cells stably overexpressing NF1, immunoblot with anti-NF1; control mouse IgG1

“NF1 tagged with Flag-HA at the N-terminus (pHAGE-NF1), stably overexpressed (from UniProt P21359 1-2839)” was tested, and the binding was “binds”.
